# Results: the supplement of paper PMC12823440, “Inhibitors supercharge kinase turnover through native proteolytic circuits” (Nature, 2025)
# Structures can show the parent of a compound that is named as a salt. The list shows a part of the results. The calls rarely recur for the same compound in another form.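 In K562 cells expressing nanoluciferase-fused kinases, luminescence was recorded at 4 h intervals between 2 and 18 h, normalized as percent of control with DMSO at 100% and a positive control at 0%. A significant (2 sigma) signal drop marks a time point as decreased. The authors' rule for a hit is not shown and takes in more than the number of time points.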
# Biological target: EGFR (UniProt P00533)
# Assay: kinase-Nluc reporter destabilization hit call (1 = scored as downregulated) (binary); higher = compound decreases kinase abundance
# Details: K562; 2-18 h
row,Compound,kinase-Nluc reporter destabilization hit call
1,O=c1[nH]c2ccccc2n1C1CCN(Cc2ccc(-c3[nH]c4cc5ncnc5cc4nc3-c3ccccc3)cc2)CC1 [AKT inhibitor VIII] (2.5 µM),inactive: 0
2,C[C@H]1CC[C@]2(NC1)O[C@H]1C[C@H]3[C@@H]4CC[C@H]5C[C@@H](O[C@@H]6O[C@H](CO)[C@H](O[C@@H]7O[C@H](CO)[C@@H](O)[C@H](O[C@@H]8OC[C@@H](O)[C@H](O)[C@H]8O)[C@H]7O[C@@H]7O[C@H](CO)[C@@H](O)[C@H](O)[C@H]7O)[C@H](O)[C@H]6O)CC[C@]5(C)[C@H]4CC[C@]3(C)[C@H]1[C@@H]2C [Tomatine] (2.5 µM),inactive: 0
3,C=C[C@H]1CN2CC[C@]3(C(=O)Nc4ccccc43)[C@@H]2C[C@@H]1/C(=C\OC)C(=O)OC [Corynoxeine] (2 µM),inactive: 0
4,C=CC(=O)Nc1ccc2[nH]c(=O)n(C3CCN(Cc4ccc(-c5nc6cc[nH]c(=O)c6cc5-c5ccccc5)cc4)CC3)c2c1 [Borussertib] (10 µM),inactive: 0
5,CCOC(=O)c1c(/C(C#N)=C\N)c2ccc(Cl)c(Cl)c2n1C (10 µM),inactive: 0
6,CC(=O)OC(C)(C)/C=C/C(=O)[C@](C)(O)[C@H]1[C@H](O)C[C@@]2(C)[C@@H]3CC=C4[C@@H](C=C(O)C(=O)C4(C)C)[C@]3(C)C(=O)C[C@]12C [Cucurbitacin E] (2.5 µM),inactive: 0
7,Cc1[nH]ncc1-c1cc2nc([C@H]3CC4CCN3CC4)[nH]c(=O)c2s1 [(R)-Simurosertib] (10 µM),inactive: 0
8,C[C@H]1CC[C@]2(NC1)O[C@H]1C[C@H]3[C@@H]4CC[C@H]5C[C@@H](O)CC[C@]5(C)[C@H]4CC[C@]3(C)[C@H]1[C@@H]2C [Tomatidine] (2 µM),inactive: 0
9,O=Cc1cn(Cc2ccc(Cl)cc2)c2ccccc12 [Oncrasin-1] (10 µM),inactive: 0
10,O=[N+]([O-])/C=C/c1ccc2c(c1)OCO2 (2.5 µM),inactive: 0
11,CCN1CCN(C(=O)Cc2ccc(Nc3ncc(F)c(Nc4ccc(C(=O)Nc5ccccc5Cl)cc4)n3)cc2)CC1 (2.5 µM),inactive: 0
12,COc1ccc2c(c[n+](C)c3c4cc5c(cc4ccc23)OCO5)c1OC [Chelerythrine (chloride)] (10 µM),inactive: 0
13,COC[C@H]1OC(=O)c2coc3c2[C@@]1(C)C1=C(C3=O)[C@@H]2CCC(=O)[C@@]2(C)C[C@H]1OC(C)=O [Wortmannin] (2.5 µM),inactive: 0
14,C[C@H]1CC[C@]2(NC1)O[C@H]1C[C@H]3[C@@H]4CC[C@H]5C[C@@H](O)CC[C@]5(C)[C@H]4CC[C@]3(C)[C@H]1[C@@H]2C [Tomatidine (hydrochloride)] (10 µM),inactive: 0
15,COc1ccc(/C=C/c2cc(OC)c(OC)c(OC)c2)cc1 (2.5 µM),inactive: 0
16,O=c1cc(O)c2ccccc2o1 [4-Hydroxycoumarin] (10 µM),inactive: 0
17,C=CC(=O)N[C@H]1C=C(C)c2c(-c3cnc4ccccc4c3)c3c(N)ncnc3n2C1 (10 µM),inactive: 0
18,N#CC(C#N)=Cc1ccc([N+](=O)[O-])c(O)c1 (10 µM),inactive: 0
19,O=C(O)c1sc2cc(Cl)ccc2c1Cl (10 µM),inactive: 0
20,Cc1n[nH]cc1-c1cc2nc([C@@H]3CC4CCN3CC4)[nH]c(=O)c2s1 [Simurosertib] (2.5 µM),inactive: 0
21,Cn1cc(C2=C(c3cn(C4CCN(Cc5ccccn5)CC4)c4ccccc34)C(=O)NC2=O)c2ccccc21 [Enzastaurin] (10 µM),inactive: 0
22,CN(C)C(=O)c1ccc(Cn2c(C(=O)O)cc3c(Br)cc(Sc4ccc(Cl)c(Cl)c4)cc32)cc1 [Rheb inhibitor NR1] (10 µM),inactive: 0
23,C/C(O)=C(\C#N)C(=O)Nc1cc(Br)ccc1Br (10 µM),inactive: 0
24,O=C1c2ccccc2C(=O)c2c1cccc2-c1cnn(C2CCNCC2)c1 [PDK4-IN-1 (hydrochloride)] (10 µM),inactive: 0
25,COc1ccc(N(C(=O)Oc2c(C)cccc2C)c2ccnc(Nc3ccc(N4CCN(C)CC4)cc3)n2)c(OC)c1 (2.5 µM),inactive: 0
26,C[C@@H]1CC[C@H]2[C@@H](C)C(=O)O[C@@H]3O[C@@]4(C)CC[C@@H]1[C@]32OO4 [Artemisinin] (10 µM),inactive: 0
27,CC(C)(C)c1cc(C=C(C#N)C#N)cc(Br)c1O (2.5 µM),inactive: 0
28,CC1=C[C@]23C(=O)[C@@H](C=C(CO)[C@@H](O)[C@]2(O)[C@H]1O)[C@H]1[C@@H](C[C@H]3C)C1(C)C [Ingenol] (10 µM),inactive: 0

# 2 entries picked at random from the list so far, as already listed:
row,Compound,kinase-Nluc reporter destabilization hit call
12,COc1ccc2c(c[n+](C)c3c4cc5c(cc4ccc23)OCO5)c1OC [Chelerythrine (chloride)] (10 µM),inactive: 0
5,CCOC(=O)c1c(/C(C#N)=C\N)c2ccc(Cl)c(Cl)c2n1C (10 µM),inactive: 0
